Assay results reported in paper PMC7982521, “Studies on the Changes of Pharmacokinetics Behaviors of Phytochemicals and the Influence on Endogenous Metabolites After the Combination of Radix Bupleuri and Radix Paeoniae Alba Based on Multi-Component Pharmacokinetics and Metabolomics” (Frontiers in Pharmacology, 2021).

Tested on: endogenous metabolites
Assay: Metabolomics: dynamic response of endogenous metabolites in rat plasma after oral RB-RPA (UPLC-HRMS, PCA/PLS-DA/OPLS-DA, relative distance)
Assay type: in vivo, Sprague-Dawley rats
Details: mean ± SD, n = 6

Compound	level of endogenous metabolite normalized by IS (glycyrrhizin) (0.083 h after oral RB-RPA)	level of endogenous metabolite normalized by IS (glycyrrhizin) (0.5 h after oral RB-RPA)	level of endogenous metabolite normalized by IS (glycyrrhizin) (0.75 h after oral RB-RPA)	level of endogenous metabolite normalized by IS (glycyrrhizin) (1 h after oral RB-RPA)	level of endogenous metabolite normalized by IS (glycyrrhizin) (1.5 h after oral RB-RPA)	level of endogenous metabolite normalized by IS (glycyrrhizin) (3 h after oral RB-RPA)	level of endogenous metabolite normalized by IS (glycyrrhizin) (5 h after oral RB-RPA)	level of endogenous metabolite normalized by IS (glycyrrhizin) (8 h after oral RB-RPA)	level of endogenous metabolite normalized by IS (glycyrrhizin) (12 h after oral RB-RPA)	level of endogenous metabolite normalized by IS (glycyrrhizin) (24 h after oral RB-RPA)
NC(Cc1cnc[nH]1)C(=O)O (racemic) [DL-Histidine]	0.291±0.036	0.312±0.088	0.201±0.092	0.365±0.076	0.292±0.043	0.321±0.071	0.387±0.085	0.282±0.065	0.221±0.083	0.232±0.095
NC(=O)CCC(N)C(=O)O (racemic) [DL-Glutamine]	0.144±0.023	0.165±0.071	0.074±0.022	0.061±0.008	0.066±0.012	0.048±0.009	0.131±0.097	0.033±0.006	0.061±0.009	0.085±0.012
O=C(O)c1ccccn1 [Picolinic acid]	0.023±0.006	0.039±0.011	0.046±0.014	0.041±0.022	0.033±0.009	0.043±0.013	0.031±0.010	0.023±0.009	0.016±0.007	0.019±0.008
O=C(O)CC(O)(CC(=O)O)C(=O)O [Citric acid]	0.097±0.008	0.088±0.023	0.079±0.018	0.066±0.027	0.071±0.010	0.050±0.009	0.047±0.006	0.069±0.011	0.121±0.032	0.087±0.029
NC(Cc1c[nH]c2ccccc12)C(=O)O (racemic) [DL-Tryptophan]	0.018±0.006	0.009±0.002	0.006±0.003	0.010±0.005	0.006±0.002	0.009±0.003	0.008±0.001	0.012±0.004	0.008±0.002	0.014±0.005
C[N+](C)(C)CCO [Choline]	2.434±0.264	1.432±0.743	1.954±0.533	3.481±0.768	3.734±1.059	4.066±1.235	3.893±1.188	3.622±1.365	3.283±0.845	2.717±0.974
L-(-)-Asparagine	0.049±0.011	0.068±0.014	0.075±0.012	0.085±0.017	0.051±0.014	0.077±0.011	0.058±0.008	0.031±0.005	0.064±0.006	0.059±0.010
NCCCC(=O)O [gamma-Aminobutyric acid]	0.057±0.016	0.078±0.021	0.084±0.029	0.091±0.033	0.121±0.038	0.109±0.031	0.092±0.034	0.112±0.044	0.074±0.024	0.055±0.020
Cc1cn([C@H]2C[C@H](O)[C@@H](COP(=O)(O)O)O2)c(=O)[nH]c1=O [Thymidine 5'-monophosphate]	0.121±0.034	0.157±0.042	0.128±0.036	0.119±0.042	0.123±0.039	0.114±0.027	0.126±0.033	0.119±0.029	0.133±0.042	0.139±0.038
CC/C=C\C/C=C\C/C=C\CCCCCCCC(=O)O [α-Linolenic acid]	0.031±0.011	0.062±0.012	0.087±0.013	0.058±0.020	0.056±0.011	0.049±0.011	0.047±0.015	0.042±0.015	0.036±0.012	0.038±0.010
CC(C)[C@H](N)C(=O)O [Valine]	5.508±1.792	6.285±1.921	7.021±2.191	8.651±2.624	9.214±2.415	9.008±2.149	8.771±3.012	7.363±3.131	6.411±2.341	5.913±2.041
CC(=O)N[C@@H](CC(C)C)C(=O)O [N-Acetyl-L-leucine]	0.020±0.004	0.019±0.003	0.021±0.002	0.017±0.008	0.015±0.007	0.024±0.002	0.022±0.003	0.021±0.03	0.016±0.09	0.020±0.004
C=C(CC(=O)O)C(=O)O [Itaconic acid]	0.011±0.003	0.015±0.004	0.019±0.005	0.024±0.005	0.017±0.007	0.020±0.007	0.016±0.009	0.014±0.006	0.010±0.003	0.012±0.004
C[C@H](CCC(=O)NCCS(=O)(=O)O)[C@H]1CC[C@H]2[C@@H]3[C@H](O)C[C@@H]4C[C@H](O)CC[C@]4(C)[C@H]3CC[C@]12C [Taurochenodeoxycholic acid]	0.013±0005	0.012±0.005	0.009±0.002	0.010±0.004	0.008±0.001	0.007±0.001	0.009±0.003	0.011±0.004	0.008±0.003	0.010±0.002
N[C@@H](CCC(=O)O)C(=O)O [L-Glutamic acid]	0.242±0.033	0.294±0.038		0.399±0.051	0.378±0.072	0.449±0.051	0.456±0.066	0.476±0.083	0.418±0.079	0.375±0.067
